Measurements as given in patent publication US20260217701A1, “SELECTIVE BET INHIBITORS AND USES THEREOF” (Tay Therapeutics Limited, priority 2022, published 2026).
Several values for one entry are separate records, joined by “and”; a condition that tells them apart may be missing. Equal entries are not always repeated. This continues a long series; more values of the same kind are listed elsewhere.

System: collagen-induced arthritis
Assay: Collagen-induced arthritis (CIA) model: clinical scores and paw volume; as to Animal paw volume percent change (%): reference of the scale not given here
Assay type: in vivo, Lewis rats
Details: for Animal paw volume / Animal paw volume percent change (%): individual animals; for Overall Clinical Score: individual animals 1-8

Cn1cc(-c2ccccc2)c(-c2cn(C)c(=O)c3[nH]c(-c4cnn(C(F)(F)F)c4)cc23)cc1=O [Compound A, 6-methyl-4-(1-methyl-2-oxo-5-phenyl-1,2-dihydropyridin-4-yl)-2-(1-(trifluoromethyl)-1H-pyrazol-4-yl)-1,6-dihydro-7H-pyrrolo[2,3-c]pyridin-7-one]
Animal paw volume (Day 13, L paw, Group 7 (CIA + Compound A 10 mg/kg), 10 mg/kg): 1.37 mL and 1.36 mL and 1.43 mL and 1.41 mL and 1.66 mL and 1.39 mL and 1.32 mL and 1.38 mL
Animal paw volume (Day 13, R paw, Group 5 (CIA + Compound A 1 mg/kg), 1 mg/kg): 1.40 mL and 1.38 mL and 1.36 mL and 1.44 mL (2×) and 1.58 mL and 1.37 mL and 1.52 mL
Animal paw volume (Day 13, R paw, Group 6 (CIA + Compound A 3 mg/kg), 3 mg/kg): 1.37 mL (2×) and 1.36 mL (2×) and 1.43 mL and 1.39 mL and 1.38 mL and 1.54 mL
Animal paw volume (Day 13, R paw, Group 7 (CIA + Compound A 10 mg/kg), 10 mg/kg): 1.34 mL (2×) and 1.41 mL and 1.60 mL and 1.56 mL and 1.37 mL and 1.35 mL and 1.36 mL
Animal paw volume percent change (%) (Day 14, L paw, group 5 CIA + Compound A 1 mg/kg, 1 mg/kg): 5.95% and 8.43% and 34.11% and 9.59% and 18.87% and 9.74% and 23.40% and 12.83%
Animal paw volume percent change (%) (Day 14, L paw, group 6 CIA + Compound A 3 mg/kg, 3 mg/kg): 9.89% (2×) and 9.34% and 2.93% and 15.71% and 5.24% and 6.49% and 17.62%
Animal paw volume percent change (%) (Day 14, L paw, group 7 CIA + Compound A 10 mg/kg, 10 mg/kg): 5.75% and 10.12% and 13.58% and 5.20% and 24.54% and 10.57% and 2.33% and 5.36%
Animal paw volume percent change (%) (Day 14, R paw, group 5 CIA + Compound A 1 mg/kg, 1 mg/kg): 5.20% and 6.90% and 15.06% and 10.18% and 20.38% and 8.86% and 9.89% and 17.36%
Animal paw volume percent change (%) (Day 14, R paw, group 6 CIA + Compound A 3 mg/kg, 3 mg/kg): 3.77% and 9.34% and 3.02% and 5.95% and 13.51% and 7.49% and 6.90% and 31.27%
Animal paw volume percent change (%) (Day 14, R paw, group 7 CIA + Compound A 10 mg/kg, 10 mg/kg): 3.07% and 6.23% and 7.20% and 28.73% and 20.52% and 3.00% and 6.61% and 3.86%
Overall Clinical Score (Day 14, CIA + Compound A 3 mg/kg, 3 mg/kg): 1 and 3
Overall Clinical Score (Day 14, CIA + Compound A 10 mg/kg, 10 mg/kg): 0 (5×) and 1 and 2 (2×)
Animal paw volume (Day 14, L paw, Group 5 (CIA + Compound A 1 mg/kg), 1 mg/kg): 1.43 mL and 1.42 mL and 1.73 mL and 1.49 mL and 1.58 mL and 1.47 mL and 1.64 mL and 1.50 mL
Animal paw volume (Day 14, L paw, Group 6 (CIA + Compound A 3 mg/kg), 3 mg/kg): 1.45 mL (2×) and 1.41 mL (3×) and 1.51 mL and 1.40 mL and 1.54 mL
Animal paw volume (Day 14, L paw, Group 7 (CIA + Compound A 10 mg/kg), 10 mg/kg): 1.38 mL (2×) and 1.42 mL (2×) and 1.51 mL and 1.68 mL and 1.47 mL and 1.32 mL
Animal paw volume (Day 14, R paw, Group 5 (CIA + Compound A 1 mg/kg), 1 mg/kg): 1.42 mL and 1.40 mL and 1.49 mL and 1.52 mL and 1.60 mL and 1.48 mL and 1.45 mL and 1.56 mL
Animal paw volume (Day 14, R paw, Group 6 (CIA + Compound A 3 mg/kg), 3 mg/kg): 1.38 mL and 1.41 mL and 1.37 mL and 1.43 mL and 1.47 mL and 1.44 mL and 1.40 mL and 1.70 mL
Animal paw volume (Day 14, R paw, Group 7 (CIA + Compound A 10 mg/kg), 10 mg/kg): 1.35 mL (2×) and 1.37 mL (2×) and 1.42 mL and 1.73 mL and 1.62 mL and 1.38 mL
Animal paw volume percent change (%) (Day 15, L paw, group 5 CIA + Compound A 1 mg/kg, 1 mg/kg): 5.95%
Animal paw volume percent change (%) (Day 15, L paw, group 6 CIA + Compound A 3 mg/kg, 3 mg/kg): 13.36% and 19.54%
Animal paw volume percent change (%) (Day 15, L paw, group 7 CIA + Compound A 10 mg/kg, 10 mg/kg): 23.75% and 10.12% and 15.09% and 31.23% and 28.62% and 11.32% and 9.34% and 6.13%
Animal paw volume percent change (%) (Day 15, R paw, group 5 CIA + Compound A 1 mg/kg, 1 mg/kg): 5.95%
Animal paw volume percent change (%) (Day 15, R paw, group 6 CIA + Compound A 3 mg/kg, 3 mg/kg): 6.90% and 30.89%
Animal paw volume percent change (%) (Day 15, R paw, group 7 CIA + Compound A 10 mg/kg, 10 mg/kg): 15.33% and 9.34% (2×) and 5.68% and 31.72% and 33.96% and 1.50% and 6.95%
Overall Clinical Score (Day 15, CIA + Compound A 3 mg/kg, 3 mg/kg): 3 and 2 (2×)
Overall Clinical Score (Day 15, CIA + Compound A 10 mg/kg, 10 mg/kg): 2 and 0 (4×) and 1 and 4 and 3
Animal paw volume (Day 15, L paw, Group 5 (CIA + Compound A 1 mg/kg), 1 mg/kg): 1.43 mL
Animal paw volume (Day 15, L paw, Group 6 (CIA + Compound A 3 mg/kg), 3 mg/kg): 1.56 mL
Animal paw volume (Day 15, L paw, Group 7 (CIA + Compound A 10 mg/kg), 10 mg/kg): 1.62 mL and 1.42 mL and 1.53 mL and 1.77 mL and 1.73 mL and 1.48 mL and 1.41 mL and 1.39 mL
Animal paw volume (Day 15, R paw, Group 5 (CIA + Compound A 1 mg/kg), 1 mg/kg): 1.43 mL
Animal paw volume (Day 15, R paw, Group 6 (CIA + Compound A 3 mg/kg), 3 mg/kg): 1.40 mL and 1.70 mL
Animal paw volume (Day 15, R paw, Group 7 (CIA + Compound A 10 mg/kg), 10 mg/kg): 1.51 mL and 1.41 mL (2×) and 1.40 mL and 1.77 mL and 1.80 mL and 1.36 mL and 1.39 mL
Animal paw volume percent change (%) (Day 18, L paw, group 5 CIA + Compound A 1 mg/kg, 1 mg/kg): 5.20%
Animal paw volume percent change (%) (Day 18, L paw, group 6 CIA + Compound A 3 mg/kg, 3 mg/kg): 25.19% and 26.82%
Animal paw volume percent change (%) (Day 18, L paw, group 7 CIA + Compound A 10 mg/kg, 10 mg/kg): 23.75% and 62.26% and 13.58% and 27.51% and 5.20% and 5.66% and 37.35% and 6.13%
Animal paw volume percent change (%) (Day 18, R paw, group 5 CIA + Compound A 1 mg/kg, 1 mg/kg): 5.95%
Animal paw volume percent change (%) (Day 18, R paw, group 6 CIA + Compound A 3 mg/kg, 3 mg/kg): 20.69% and 30.12%
Animal paw volume percent change (%) (Day 18, R paw, group 7 CIA + Compound A 10 mg/kg, 10 mg/kg): 22.22% and 56.81% and 53.41% and 49.63% and 22.01% and 1.50% and 41.25% and 25.48%
Overall Clinical Score (Day 18, CIA + Compound A 10 mg/kg, 10 mg/kg): 2 (3×) and 6 and 3 and 0 and 4 and 1
Animal paw volume (Day 18, L paw, Group 5 (CIA + Compound A 1 mg/kg), 1 mg/kg): 1.42 mL
Animal paw volume (Day 18, L paw, Group 6 (CIA + Compound A 3 mg/kg), 3 mg/kg): 1.64 mL
Animal paw volume (Day 18, L paw, Group 7 (CIA + Compound A 10 mg/kg), 10 mg/kg): 1.62 mL and 2.09 mL and 1.51 mL and 1.72 mL and 1.42 mL and 1.40 mL and 1.77 mL and 1.39 mL
Animal paw volume (Day 18, R paw, Group 5 (CIA + Compound A 1 mg/kg), 1 mg/kg): 1.43 mL
Animal paw volume (Day 18, R paw, Group 6 (CIA + Compound A 3 mg/kg), 3 mg/kg): 1.69 mL
Animal paw volume (Day 18, R paw, Group 7 (CIA + Compound A 10 mg/kg), 10 mg/kg): 1.60 mL and 2.02 mL and 2.03 mL and 2.01 mL and 1.64 mL and 1.36 mL and 1.82 mL and 1.63 mL
Animal paw volume percent change (%) (Day 19, L paw, group 5 CIA + Compound A 1 mg/kg, 1 mg/kg): 3.72%
Animal paw volume percent change (%) (Day 19, L paw, group 6 CIA + Compound A 3 mg/kg, 3 mg/kg): 26.22% and 20.99% and 28.35%
